AC50 data for 18 molecules are collected here from PubChem BioAssay (NCATS).

Each structure is given as a SMILES string. Values joined by “and” are separate entries in the source; they are usually repeats but may differ in a detail not shown here. Equal values may be shown once. This is one part of the list. Further columns of the screen follow, without active or inactive calls. Most of these compounds were active or inconclusive in the main read-out, so they are no random draw. The note in brackets gives the kind of curve behind each potency; many fits are weak.

This assay in a line: qHTS Assay for Inhibitors of PDE-IV (AID 607). The note with it: HEK293 ACTOne CNG channel cells, membrane potential fluorescence; measured here: parental cell counter-screen. The gist of the method: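 Cell-based read-out of cAMP via a modified cyclic nucleotide-gated channel and membrane potential dye (535/590 nm) in HEK293 cells expressing PDE4 endogenously. Compounds tested up to 22.9 uM final; 100 uM RO 20-1724 reference.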
(In qHTS, concentration-response curves come from the screen itself.)
Take `COc1cc([C@H]2c3cc4c(cc3[C@@H](O)[C@@H]3COC(=O)[C@H]23)OCO4)cc(OC)c1OC`: the AC50 was 5.01 µM [rising, partial curve] and 501 nM [rising, partial curve, poor fit].
For `CN1[C@@H](CC(=O)c2ccccc2)CCC[C@@H]1C[C@@H](O)c1ccccc1`, the AC50 was 10 µM [rising, single point].
The result for `CCC/C=C(\CCC)C(NC(=O)c1cccs1)c1ccc(C(=O)OC)cc1` (stereo not drawn) reads 10 µM [rising, single point]; that for `C/C(=C\c1ccc(Cl)cc1)C(C)(C)C(=O)O`, 3.16 µM [rising, single point]; that for `O=C(c1cnccn1)N1CCC2(CCCN(c3cccc(-c4ccccc4)c3)C2)CC1`, 15.8 µM [rising, single point].
The result for `Nc1ncnc2c1ncn2[C@@H]1O[C@@H](C(=O)NC2CC2)[C@H](O)[C@@H]1O` reads 6.31 µM [rising, partial curve, poor fit]; that for `O=C(c1cccc(F)c1)N1CCC2(CC1)CCN(c1ccncc1)CC2`, 7.94 µM [rising, partial curve].
The result for `C=C[C@@]1(C)CC(=O)[C@@]2(O)[C@@]3(C)[C@@H](O)CCC(C)(C)[C@@H]3[C@H](O)[C@H](OC(C)=O)[C@@]2(C)O1` reads 0.631 µM [rising, full curve]; that for `Cc1ccc(OC[C@H](O)[C@H](C)NC(C)C)c2c1CCC2`, 12.6 µM [rising, partial curve]; that for `CNC(=O)[C@H](C)[C@H]1C[C@]1(C)[C@H](NC(=O)OCc1ccccc1)c1ccccc1`, 12.6 µM [rising, single point].
Turning to `COc1ccccc1CNc1ncncc1-c1ccccc1OC`, the half-maximal activity concentration (AC50) is 12.6 µM [rising, partial curve].
The result for `CCn1cc(C(=O)O)c(=O)c2cnc(N3CCNCC3)nc21` reads 0.00126 µM [rising, full curve, poor fit]; that for `CCCC[C@@H]1C[C@H]1C(NC(=O)c1ccco1)c1ccc(C(=O)OC)cc1` (stereo partly drawn), 7.94 µM [rising, partial curve]; that for `CCC/C=C(\CCC)C(NP(=O)(c1ccccc1)c1ccccc1)c1ccc(-c2ccccc2)cc1` (stereo not drawn), 10 µM [rising, single point].
Next, `O[Si@](CCCN1CCCCC1)(c1ccc(F)cc1)C1CCCCC1`: 10 µM [rising, partial curve]; `CN(Cc1ccco1)c1ncnc2ccc(-c3ccc4c(c3)OCO4)cc12`: 3.16 µM [rising, partial curve]; `COCCn1c(C(=O)N2CCCC2)cc2c1C[C@H]1CN(C(=O)c3ccccc3)[C@@](Cc3ccccc3)(C(=O)OC)[C@@H]21`: 10 µM [rising, single point].
With `CCCCc1c2ccccc2nc2[nH]c3ccccc3c12`, the AC50 is 7.94 µM [rising, single point].

The AC50 is the concentration at which the activity in the assay is half-maximal.
